The results in this text go back to PubChem BioAssay AID2685 (National Center for Advancing Translational Sciences (NCATS), 2010).

The list shows a part of the results. Further columns of the screen follow, without active or inactive calls. The list favours compounds with an active or inconclusive main result. Words in brackets tell the shape of the fitted curve; partial curves, single points and poor fits give uncertain potencies.

The assay in a line: qHTS Assay for Lipid Storage Modulators in Drosophila S3 Cells.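 As to cell number change: cells counted by Cell Tracker Red CMTPX staining in the red channel.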 Conditions: BODIPY lipid droplet fluorescence, 18-24 h; for cell number change: measured here: cell count max response, cells fed with added oleic acid. The procedure, abridged:
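Drosophila S3 cells got compounds at several concentrations plus oleic acid (400 uM solution). Laser-scanning cytometry with 488 nm excitation read lipid droplets at 500-530 nm and cells at 575-640 nm. Percent activity was relative to 20 uM Triacsin C.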

Setting [1] is: measured here: lipid fluorescence (Fed channel) AC50, cells fed with added oleic acid.
Setting [2] is: measured here: cell number channel AC50, cells fed with added oleic acid.

A word on the AC50: it is the midpoint of the concentration-response curve, whichever way the signal moves. Low readings indicate greater potency, high ones weaker potency. Turning to `CCCn1nc(C(=O)N2CCN(S(=O)(=O)c3ccc(C)c(C)c3)CC2)c2ccccc2c1=O`, the AC50 under setting [1] is 16.4 µM [falling, partial curve].

As to `COCCNC(=S)N/N=C/c1ccccc1C(=O)O`, the AC50 under setting [2] is 0.00411 µM [rising, full curve, poor fit].

With `COCCCNC(=S)N/N=C/c1cccc(OC)c1O`, the cell number change came to 12.3%.

Turning to `COc1nc2c(C)cccc2cc1-c1noc(-c2ccncc2)n1`, the cell number change amounted to 10.1%. The AC50 under setting [1] was 0.651 µM [rising, full curve, poor fit].

As to `Cc1ccc(C(=O)COc2cccc(NC(=O)c3ccco3)c2)cc1`, the cell number change was determined as 74.1%. Also, under setting [2], the AC50 was 7.31 µM [rising, partial curve].

Take `CN(C)/C=C/C(=O)c1ccc(Oc2ccccc2)cc1`: the cell number change was 32.3%. Under setting [2], the AC50 is 0.013 µM [rising, full curve, poor fit]. For the same compound, the AC50 under setting [1] is 29.1 µM [rising, partial curve].

Regarding `O=C(Nc1ccc(Br)cc1)c1cccc(N2C(=O)C3C4CCC(C4)C3C2=O)c1` (stereo not given), the cell number change is -55.6%. Further, the AC50 under setting [2] is 29.1 µM [falling, partial curve, poor fit]. The AC50 under setting [1] was 29.1 µM [falling, single point].

As to `CCc1cc2c(SCC(=O)N(CC)c3c(N)n(Cc4ccccc4)c(=O)[nH]c3=O)ncnc2s1`, the cell number change was -57%. The AC50 under setting [1] is 29.1 µM [falling, single point].

As to `CC(=O)c1c(C)[nH]c(C(=O)OCC(=O)Nc2c(C)n(C)n(-c3ccccc3)c2=O)c1C`, the cell number change came out at 24%.

For the compound `O=C(Nc1scc(-c2ccccc2)c1C(=O)O)c1ccc(F)cc1`, the cell number change was determined as 14.8%. Also, the AC50 under setting [1] was 29.1 µM [rising, single point].

In the case of `Cc1ccc(Cl)cc1N1CCN(C(=O)c2ccc(NC3=NC4CS(=O)(=O)CC4S3)cc2)CC1` (stereo not given), the cell number change is -28.1%. Besides, the half-maximal activity concentration (AC50) under setting [1] was 20.6 µM [falling, single point].

In the case of `COc1ccc(CCNC(=O)CCCn2c(SCC(N)=O)nc3cc4c(cc3c2=O)OCO4)cc1OC`, the cell number change was -31%. For the same compound, the AC50 under setting [2] is 6.51 µM [rising, single point]. Besides, the AC50 under setting [1] is 6.51 µM [rising, single point].

As for `Cc1ccc(S(=O)(=O)N2CCN(C(=O)CSc3nc4ccccc4c(=O)[nH]3)CC2)c(C)c1`, the cell number change is -32.3%. For the same compound, the AC50 under setting [2] was 32.6 µM [falling, single point]. Besides, under setting [1], the AC50 was 0.0731 µM [falling, full curve, poor fit].

As to `CCCCCSc1nncc(=O)[nH]1`, the cell number change is -7.73%. For the same compound, the AC50 under setting [2] was 0.00517 µM [falling, full curve, poor fit].

For `CCn1c(C(c2ccccc2)c2ccccc2)n[nH]c1=S`, the cell number change was -82.7%. For the same compound, the AC50 under setting [2] is 29.1 µM [falling, single point].

In the case of `CN1CCN(C(=O)c2ccc3c(c2)N(C)C(=O)/C(=C/c2cccc(Cl)c2)S3)CC1`, the cell number change is -48.9%. Moreover, the AC50 under setting [2] is 29.1 µM [falling, single point].

On to `Cc1cc(S(=O)(=O)N2CCCCC2)ccc1OCC(=O)Nc1ccccc1`, for which the cell number change was -7.65%. For the same compound, under setting [1], the AC50 was 35.5 µM [falling, single point].

As for `CCOC(=O)N1CCc2c(sc3c2c(=O)n(Cc2ccccc2)c(=O)n3Cc2ccc(C)cc2)C1`, the cell number change amounted to 0.52%. For the same compound, the AC50 under setting [1] was 2.59 µM [rising, partial curve].

On to `Cn1c(=N)n(CC(=O)c2cccs2)c2ccccc21`, for which the cell number change is -29.8%. Besides, the AC50 under setting [1] is 13 µM [falling, partial curve, poor fit].

Turning to `O=C(NCCN1CCOCC1)c1ccc(CS(=O)(=O)Cc2ccccc2F)o1`, the cell number change came to 5.18%. Under setting [1], the AC50 is 0.411 µM [falling, partial curve].

`COc1ccc(C2C(C#N)=C(N)OC3=C2C(=O)CC(C)C3)c(OC)c1OC` (stereo not given): the cell number change is -3.59%.

For `CC(C)(C)c1ccc(/C=C/C(=O)N2CCN(c3ncccn3)CC2)cc1`, the cell number change was -3.7%. The AC50 under setting [2] was 2.91 µM [rising, single point]. Under setting [1], the AC50 was 6.51 µM [rising, partial curve].

Take `CNC(=O)CSc1n[nH]c(-c2cc(Cl)ccc2OC)n1`: the cell number change worked out at 20%. Under setting [2], the AC50 was 0.082 µM [rising, full curve, poor fit].

Regarding `O=C(NCCC1=CCCCC1)C1CCN(S(=O)(=O)N2CCOCC2)CC1`, the cell number change turned out to be 3.12%. The concentration at half-maximal activity (AC50) under setting [1] is 7.31 µM [falling, single point].

In the case of `CN(C)C(=O)N1CCC(C(=O)N2CCCC(C(=O)c3ccc(C(C)(C)C)cc3)C2)CC1` (stereo not given), the cell number change is -58.4%. Also, under setting [2], the half-maximal activity concentration (AC50) is 14.6 µM [falling, partial curve]. Besides, the AC50 under setting [1] was 8.2 µM [falling, partial curve].

As to `COc1ccc(NC(=O)c2ccccc2NC(=O)CSc2ccccc2)cc1`, the cell number change was -37%. In addition, the AC50 under setting [2] was 16.4 µM [falling, single point].

`Cc1nnc(SCc2ccccc2C#N)n1-c1ccccc1`: the cell number change was -12.2%. The AC50 under setting [1] was 29.1 µM [rising, partial curve].

With `Cc1ccc(N(CC(=O)NCc2ccccc2Cl)S(=O)(=O)c2cccs2)cc1`, the cell number change stood at 32%. Also, the AC50 under setting [2] was 13 µM [rising, single point].

Consider `O=c1ccccn1Cc1ccccc1F`, for which the cell number change worked out at 1.09%. Besides, the AC50 under setting [1] is 0.92 µM [falling, partial curve].

Consider `CC(=O)CC1(O)C(=O)N(CN2CCN(c3ccccc3)CC2)c2ccccc21` (stereo not given), for which the cell number change was -1.64%.

In the case of `N#CC1=C2SCC(O)(c3ccccc3)N2C(=O)CC1c1cccs1` (stereo not given), the cell number change is -36.5%. For the same compound, the AC50 under setting [2] is 32.6 µM [falling, single point]. For the same compound, the AC50 under setting [1] was 29.1 µM [falling, single point].

As for `COC(=O)CCSCC(=O)Nc1cc(C)on1`, the cell number change is -43.3%. Under setting [2], the AC50 is 29.1 µM [falling, single point]. In addition, the AC50 under setting [1] was 29.1 µM [falling, single point].

For the compound `Cc1nnc(SCC(=O)NN2C(=O)NC3(CCCCC3)C2=O)s1`, the cell number change stood at 13.1%. For the same compound, under setting [1], the AC50 was 23.1 µM [rising, single point].

As to `COC(=O)CSC(C(=O)Nc1ccc(C)c(C)c1)c1ccccc1` (stereo not given), the cell number change came to 4.6%. Moreover, the AC50 under setting [1] is 0.00411 µM [rising, full curve, poor fit].

In the case of `CN(C)S(=O)(=O)c1cccc(NC(=S)NCCCn2ccnc2)c1`, under setting [2], the AC50 is 0.103 µM [rising, full curve, poor fit].

Take `CCOC(=O)c1c(NC(=O)CSc2nnc(-c3c[nH]c4ccccc34)n2C)sc2c1CCCC2`: the cell number change is -11%. Moreover, the AC50 under setting [1] is 1.46 µM [rising, partial curve].

Take `Cc1cc(C)nc(NC(=O)c2cccc(Br)c2)n1`: the cell number change was 23.6%. Moreover, under setting [1], the AC50 is 29.1 µM [rising, partial curve, poor fit].
